# Laboratory results: paper PMC10940650
# The chains behind the UniProt entries cited, without tags or fusion partners.
# UniProt Q13283: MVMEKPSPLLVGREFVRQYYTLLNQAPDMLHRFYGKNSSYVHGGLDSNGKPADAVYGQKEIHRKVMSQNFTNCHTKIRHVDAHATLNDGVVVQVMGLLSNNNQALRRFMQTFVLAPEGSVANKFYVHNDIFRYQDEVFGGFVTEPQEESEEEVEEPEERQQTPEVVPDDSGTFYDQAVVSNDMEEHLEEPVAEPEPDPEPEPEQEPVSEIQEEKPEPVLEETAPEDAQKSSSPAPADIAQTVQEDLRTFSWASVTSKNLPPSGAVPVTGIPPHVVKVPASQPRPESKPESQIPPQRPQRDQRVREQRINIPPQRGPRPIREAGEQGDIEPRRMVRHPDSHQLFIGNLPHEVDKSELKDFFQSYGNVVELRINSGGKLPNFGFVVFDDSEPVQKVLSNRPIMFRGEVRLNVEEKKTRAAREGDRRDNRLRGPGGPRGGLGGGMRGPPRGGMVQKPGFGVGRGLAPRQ
# Results are given in words; binding and its absence hold for the method and conditions named. Binding seen in cells or lysates may run through a third protein. Some entries that bind do so weakly or less than the wild type.
# Tests used:
# [1] = biological target: T1, NUPR1 (Nuclear Protein 1) (human (endogenous in MiaPaCa-2)) (UniProt O60356); test: proximity ligation; Duolink In Situ on fixed, permeabilised MiaPaCa-2 cells; rabbit anti-NUPR1 and mouse anti-G3BP1; control cells or arsenate 0.5 mM for 1 h
# T1 sequence: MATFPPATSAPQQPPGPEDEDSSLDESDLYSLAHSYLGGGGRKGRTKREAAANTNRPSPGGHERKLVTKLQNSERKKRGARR
# [2] = biological target: T1, NUPR1 (Nuclear Protein 1) (human (endogenous in MiaPaCa-2)); test: proximity ligation; Duolink In Situ on fixed, permeabilised MiaPaCa-2 cells; rabbit anti-NUPR1 and mouse anti-G3BP1; cells treated with ZZW-115 at 6 µM for 6 h, with or without arsenate 0.5 mM for 1 h
substance,measurement,setting,value
G3BP1 (from UniProt Q13283 1-466),binding,[1],binds
same,binding,[2],binds weakly
